The results in this text go back to publication doi:10.1101/2021.06.09.447550.

By UniProt entry, the sequences of proteins in these tests, tags left out.
UniProt P48431: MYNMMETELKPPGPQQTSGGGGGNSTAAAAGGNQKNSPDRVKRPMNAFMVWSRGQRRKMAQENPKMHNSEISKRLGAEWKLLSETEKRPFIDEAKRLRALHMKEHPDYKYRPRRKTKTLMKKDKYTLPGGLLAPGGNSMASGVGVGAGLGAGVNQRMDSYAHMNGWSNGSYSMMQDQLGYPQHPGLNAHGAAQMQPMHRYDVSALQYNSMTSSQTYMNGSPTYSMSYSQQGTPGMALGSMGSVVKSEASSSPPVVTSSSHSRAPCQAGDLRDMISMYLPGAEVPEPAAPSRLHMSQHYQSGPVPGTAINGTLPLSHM
UniProt Q93009: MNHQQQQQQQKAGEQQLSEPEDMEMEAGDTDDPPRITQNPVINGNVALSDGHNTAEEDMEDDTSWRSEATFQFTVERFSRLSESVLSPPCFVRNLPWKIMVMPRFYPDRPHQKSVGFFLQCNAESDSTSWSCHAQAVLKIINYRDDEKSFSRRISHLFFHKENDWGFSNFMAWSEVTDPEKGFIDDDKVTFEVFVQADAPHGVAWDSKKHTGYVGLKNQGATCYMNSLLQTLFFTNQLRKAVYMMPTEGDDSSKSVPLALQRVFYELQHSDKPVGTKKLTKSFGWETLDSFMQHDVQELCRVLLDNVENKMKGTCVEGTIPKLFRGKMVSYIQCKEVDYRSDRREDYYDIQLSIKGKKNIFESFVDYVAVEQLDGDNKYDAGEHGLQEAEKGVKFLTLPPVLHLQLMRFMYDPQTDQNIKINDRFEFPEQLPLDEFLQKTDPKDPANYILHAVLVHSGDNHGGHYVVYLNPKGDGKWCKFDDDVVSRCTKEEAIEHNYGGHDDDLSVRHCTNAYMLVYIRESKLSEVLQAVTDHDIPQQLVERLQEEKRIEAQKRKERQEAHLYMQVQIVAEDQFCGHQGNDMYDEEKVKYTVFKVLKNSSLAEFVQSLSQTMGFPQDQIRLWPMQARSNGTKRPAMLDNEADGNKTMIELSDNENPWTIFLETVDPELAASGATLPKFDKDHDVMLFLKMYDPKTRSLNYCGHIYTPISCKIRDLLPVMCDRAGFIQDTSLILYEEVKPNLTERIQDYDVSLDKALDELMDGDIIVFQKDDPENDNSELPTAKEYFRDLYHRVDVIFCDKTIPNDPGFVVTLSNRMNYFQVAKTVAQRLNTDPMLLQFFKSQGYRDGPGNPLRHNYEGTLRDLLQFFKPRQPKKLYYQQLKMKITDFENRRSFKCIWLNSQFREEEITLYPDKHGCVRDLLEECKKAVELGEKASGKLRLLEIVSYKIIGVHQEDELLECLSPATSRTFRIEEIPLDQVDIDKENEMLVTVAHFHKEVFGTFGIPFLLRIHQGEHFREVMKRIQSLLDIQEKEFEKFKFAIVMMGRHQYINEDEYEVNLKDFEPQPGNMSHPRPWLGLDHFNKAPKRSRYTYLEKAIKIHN

No constants are given. Whether binding was seen depends on the method and setting. Binding seen in cells or lysates may run through a third protein. A yes stands for co-enrichment or nearness to the bait. Other partners may have been found.

For this experiment, the target named is Flag-SOX2 (human) (UniProt P48431). As to the kind of experiment: affinity purification with mass spectrometry.

On to “HAUSP (Herpesvirus-Associated Ubiquitin-Specific Protease) (from UniProt Q93009 1-1102) (enzyme)”, for which the binding result is recorded as “binds”.
